# According to the supplement of paper PMC8728848:
# The list shows a part of the results.
# Key:
# Assay in all cases: glycan array binding signal (z-score within array); higher = stronger binding
# Conditions in all cases: glycan notation: IUPAC condensed, linker removed
# [1] = molecular target: Neu5Ac(a2-3)Gal(b1-3)[Fuc(a1-4)]GlcNAc
# In short: (§1)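 Arrays were curated from the Consortium for Functional Glycomics database, 3228 in total, and kept only where the protein sequence was available. Binding is expressed as a within-array Z-score. This score was averaged across arrays of the same protein sequence at different concentrations or buffers and across linkers, and negative values can be read as non-binding.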
# [2] = molecular target: Neu5Ac(a2-3)Gal(b1-3)[Fuc(a1-4)]GlcNAc(b1-3)Gal(b1-3)[Fuc(a1-4)]GlcNAc
# In short: as §1
# [3] = molecular target: Neu5Ac(a2-3)Gal(b1-3)[Fuc(a1-4)]GlcNAc(b1-3)Gal(b1-4)[Fuc(a1-3)]GlcNAc
# In short: as §1
# [4] = molecular target: Neu5Ac(a2-3)Gal(b1-3)[GlcNAc(b1-6)]GalNAc
# In short: as §1
# [5] = molecular target: Neu5Ac(a2-3)Gal(b1-3)[Neu5Ac(a2-6)]GalNAc
# In short: as §1
# [6] = molecular target: Neu5Ac(a2-3)Gal(b1-3)[Neu5Ac(a2-6)]GlcNAc(b1-3)[Fuc(a1-3)[Gal(b1-4)]GlcNAc(b1-6)]Gal(b1-4)Glc
# In short: as §1
# [7] = molecular target: Neu5Ac(a2-3)Gal(b1-3)]Neu5Ac(a2-3)Gal(b1-4)]GlcNAc
# In short: as §1
# Neu5Ac(a2-3)Gal(b1-4)Glc = molecular target: Neu5Ac(a2-3)Gal(b1-4)Glc
# In short: as §1
# [8] = molecular target: Neu5Ac(a2-3)Gal(b1-4)GlcNAc
# In short: as §1
# [9] = molecular target: Neu5Ac(a2-3)Gal(b1-4)GlcNAc(b1-2)Man
# In short: as §1
# [10] = molecular target: Neu5Ac(a2-3)Gal(b1-4)GlcNAc(b1-2)Man(a1-3)[GlcNAc(b1-4)][Neu5Ac(a2-3)Gal(b1-4)GlcNAc(b1-2)Man(a1-6)]Man(b1-4)GlcNAc(b1-4)GlcNAc
# In short: as §1
# [11] = molecular target: Neu5Ac(a2-3)Gal(b1-4)GlcNAc(b1-2)Man(a1-3)[Neu5Ac(a2-3)Gal(b1-4)GlcNAc(b1-2)Man(a1-6)]Man(b1-4)GlcNAc(b1-4)GlcNAc
# In short: as §1
# [12] = molecular target: Neu5Ac(a2-3)Gal(b1-4)GlcNAc(b1-2)Man(a1-3)[Neu5Ac(a2-3)Gal(b1-4)GlcNAc(b1-2)Man(a1-6)]Man(b1-4)GlcNAc(b1-4)[Fuc(a1-6)]GlcNAc
# In short: as §1
# [13] = molecular target: Neu5Ac(a2-3)Gal(b1-4)GlcNAc(b1-2)Man(a1-3)[Neu5Ac(a2-6)Gal(b1-4)GlcNAc(b1-2)Man(a1-6)]Man(b1-4)GlcNAc(b1-4)GlcNAc
# In short: as §1
# [14] = molecular target: Neu5Ac(a2-3)Gal(b1-4)GlcNAc(b1-2)[Neu5Ac(a2-3)Gal(b1-4)GlcNAc(b1-4)]Man(a1-3)[GlcNAc(b1-4)][Neu5Ac(a2-3)Gal(b1-4)GlcNAc(b1-2)[Neu5Ac(a2-3)Gal(b1-4)GlcNAc(b1-6)]Man(a1-6)]Man(b1-4)GlcNAc(b1-4)GlcNAc
# In short: as §1
# [15] = molecular target: Neu5Ac(a2-3)Gal(b1-4)GlcNAc(b1-2)[Neu5Ac(a2-3)Gal(b1-4)GlcNAc(b1-4)]Man(a1-3)[GlcNAc(b1-4)][Neu5Ac(a2-3)Gal(b1-4)GlcNAc(b1-4)Man(a1-6)]Man(b1-4)GlcNAc(b1-4)GlcNAc
# In short: as §1
# [16] = molecular target: Neu5Ac(a2-3)Gal(b1-4)GlcNAc(b1-2)[Neu5Ac(a2-3)Gal(b1-4)GlcNAc(b1-6)]Man(a1-6)[Neu5Ac(a2-3)Gal(b1-4)GlcNAc(b1-2)Man(a1-3)]Man(b1-4)GlcNAc(b1-4)GlcNAc
# In short: as §1
# [17] = molecular target: Neu5Ac(a2-3)Gal(b1-4)GlcNAc(b1-2)[Neu5Ac(a2-3)Gal(b1-4)GlcNAc(b1-6)]Man(a1-6)[Neu5Ac(a2-3)Gal(b1-4)GlcNAc(b1-2)Man(a1-3)][GlcNAc(b1-4)]Man(b1-4)GlcNAc(b1-4)GlcNAc
# In short: as §1
# [18] = molecular target: Neu5Ac(a2-3)Gal(b1-4)GlcNAc(b1-3)Gal
# In short: as §1
# [19] = molecular target: Neu5Ac(a2-3)Gal(b1-4)GlcNAc(b1-3)Gal(b1-3)GlcNAc
# In short: as §1
# [20] = molecular target: Neu5Ac(a2-3)Gal(b1-4)GlcNAc(b1-3)Gal(b1-4)GlcNAc
# In short: as §1
# [21] = molecular target: Neu5Ac(a2-3)Gal(b1-4)GlcNAc(b1-3)Gal(b1-4)GlcNAc(b1-2)Man(a1-3)[Neu5Ac(a2-3)Gal(b1-4)GlcNAc(b1-3)Gal(b1-4)GlcNAc(b1-2)Man(a1-6)]Man(b1-4)GlcNAc(b1-4)GlcNAc
# In short: as §1
# [22] = molecular target: Neu5Ac(a2-3)Gal(b1-4)GlcNAc(b1-3)Gal(b1-4)GlcNAc(b1-3)Gal(b1-4)GlcNAc
# In short: as §1
# [23] = molecular target: Neu5Ac(a2-3)Gal(b1-4)GlcNAc(b1-3)Gal(b1-4)GlcNAc(b1-3)Gal(b1-4)GlcNAc(b1-2)Man(a1-3)[Neu5Ac(a2-3)Gal(b1-4)GlcNAc(b1-3)Gal(b1-4)GlcNAc(b1-3)Gal(b1-4)GlcNAc(b1-2)Man(a1-6)]GalNAc
# In short: as §1
# [24] = molecular target: Neu5Ac(a2-3)Gal(b1-4)GlcNAc(b1-3)Gal(b1-4)GlcNAc(b1-3)GalNAc
# In short: as §1
# [25] = molecular target: Neu5Ac(a2-3)Gal(b1-4)GlcNAc(b1-3)Gal(b1-4)GlcNAc(b1-3)[Neu5Ac(a2-3)Gal(b1-4)GlcNAc(b1-3)Gal(b1-4)GlcNAc(b1-6)]GalNAc
# In short: as §1
# [26] = molecular target: Neu5Ac(a2-3)Gal(b1-4)GlcNAc(b1-3)Gal(b1-4)GlcNAc(b1-6)[Gal(b1-3)]GalNAc
# In short: as §1
# [27] = molecular target: Neu5Ac(a2-3)Gal(b1-4)GlcNAc(b1-3)Gal(b1-4)[Fuc(a1-3)]GlcNAc
# In short: as §1
# [28] = molecular target: Neu5Ac(a2-3)Gal(b1-4)GlcNAc(b1-3)GalNAc
# In short: as §1
# [29] = molecular target: Neu5Ac(a2-3)Gal(b1-4)GlcNAc(b1-3)[Neu5Ac(a2-3)Gal(b1-4)GlcNAc(b1-6)]GalNAc
# In short: as §1
binder,measurement,setting,value
PX14375D-bvu-513-34-513 (Bacteroides vulgatus) (protein) TEDTFWKDETDFNLALTSCYTPLKNALNGGYYGTRGVMLRIARADEVDFRNDISDVYTVNRFTNSNTNSLTQGMFYQFYNALYRTNSIMQKLEEKKEQFSTDFQNSVKGECLFIRGFYLFQLAKEFKDAPLRLTASQSPSTFPLAKSSQADIWAQAKEDLKTAASLLPITNKIGKPTQGAAYAALGKIYVYEENWQEAINVLEPLTQNPYTYKLVEDFNWNFDDTHENNAESIFELLIEDVGGTDLWGDGENINSTQSNTRPKEYAAAEVGGWYEANPTQQIMDIFWKEKDKDGNFDYRARCSVAWDYEGCTYYQRPFREVFAQDKWKTYWILKYQNWKTQKDEPAPPKSFINERAIRYADVLLMLAEAYMNKGALDTSIGYINQIRRRANLNDYSGPITKEGVFEDLVHQRAIEFFVEGERFYDLRRWGLLEQTLKTCDDTRYKNYQTGKSDNINKFNYFPIPAKELDTNPLCTPSEGW,glycan array binding signal (z-score),[1],1.67
same,glycan array binding signal (z-score),[2],-0.148
same,glycan array binding signal (z-score),[3],-0.122
same,glycan array binding signal (z-score),[4],-0.36
same,glycan array binding signal (z-score),[5],0.074
same,glycan array binding signal (z-score),[6],-0.948
same,glycan array binding signal (z-score),[7],-0.374
same,glycan array binding signal (z-score),Neu5Ac(a2-3)Gal(b1-4)Glc,0.228
same,glycan array binding signal (z-score),[8],-0.226
same,glycan array binding signal (z-score),[9],1.02
same,glycan array binding signal (z-score),[10],-0.161
same,glycan array binding signal (z-score),[11],-0.82
same,glycan array binding signal (z-score),[12],-0.211
same,glycan array binding signal (z-score),[13],-0.548
same,glycan array binding signal (z-score),[14],-0.572
same,glycan array binding signal (z-score),[15],0.054
same,glycan array binding signal (z-score),[16],0.472
same,glycan array binding signal (z-score),[17],-0.238
same,glycan array binding signal (z-score),[18],0.161
same,glycan array binding signal (z-score),[19],0.281
same,glycan array binding signal (z-score),[20],-0.058
same,glycan array binding signal (z-score),[21],0.724
same,glycan array binding signal (z-score),[22],-0.749
same,glycan array binding signal (z-score),[23],0.997
same,glycan array binding signal (z-score),[24],-0.075
same,glycan array binding signal (z-score),[25],0.197
same,glycan array binding signal (z-score),[26],-0.099
same,glycan array binding signal (z-score),[27],-0.682
same,glycan array binding signal (z-score),[28],-0.347
same,glycan array binding signal (z-score),[29],0.547

# An excerpt of these results, with tabs.
binder	measurement	setting	value
PX14375D-bvu-513-34-513 (Bacteroides vulgatus) (protein) TEDTFWKDETDFNLALTSCYTPLKNALNGGYYGTRGVMLRIARADEVDFRNDISDVYTVNRFTNSNTNSLTQGMFYQFYNALYRTNSIMQKLEEKKEQFSTDFQNSVKGECLFIRGFYLFQLAKEFKDAPLRLTASQSPSTFPLAKSSQADIWAQAKEDLKTAASLLPITNKIGKPTQGAAYAALGKIYVYEENWQEAINVLEPLTQNPYTYKLVEDFNWNFDDTHENNAESIFELLIEDVGGTDLWGDGENINSTQSNTRPKEYAAAEVGGWYEANPTQQIMDIFWKEKDKDGNFDYRARCSVAWDYEGCTYYQRPFREVFAQDKWKTYWILKYQNWKTQKDEPAPPKSFINERAIRYADVLLMLAEAYMNKGALDTSIGYINQIRRRANLNDYSGPITKEGVFEDLVHQRAIEFFVEGERFYDLRRWGLLEQTLKTCDDTRYKNYQTGKSDNINKFNYFPIPAKELDTNPLCTPSEGW	glycan array binding signal (z-score)	[20]	-0.058
same	glycan array binding signal (z-score)	[21]	0.724
same	glycan array binding signal (z-score)	[22]	-0.749
same	glycan array binding signal (z-score)	[23]	0.997
same	glycan array binding signal (z-score)	[24]	-0.075
same	glycan array binding signal (z-score)	[25]	0.197
